PubChem BioAssay AID1259254 | NCATS, 2017
In all, the deposit lists about 59,000 reagents; this is a part drawn at random. About 1,550 of them (2.6%) count as active. 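G2 share is only a proxy for re-replication; each gene was hit by three separate siRNAs, and active genes were retested.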 Unmarked entries are inactive. Not all columns of the deposit are shown. The record does not give: the amount of reagent.

Screen: 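Finding genes that stop cells copying their DNA twice in one cycle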 (primary screen)
Cells: human HCT116 colorectal cancer cells
Knock-down reagent: single siRNA against human genes
Duration: 3 days
Detection: 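Nuclei stained with Hoechst and imaged; cell-cycle phase assigned by DNA content; G2 share scaled per plate, non-targeting siRNA 0%, GMNN siRNA 100%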
Scale: G2 robust z-score: higher = more G2 cells, more excess DNA replication
Call rule: 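Active siRNAs have a G2 robust z of 5 or more median absolute deviations over the median, which in these data means about 38% or higher of GMNN control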

Depletion of CIITA [SID160777238] came out at: G2 robust z-score -0.58.
With knock-down of CIITA [SID160777239] the results were G2 robust z-score 2.72.
CIITA [SID160777240] showed G2 robust z-score -0.623.
After knock-down of RPL37 [SID160716104], the screen gave G2 robust z-score 5.85 (active).
With knock-down of RPL37 [SID160716105] the results were G2 robust z-score 2.85.
RPL37 [SID160716106] scored G2 robust z-score 1.18.
FGFR3 [SID160765395] showed G2 robust z-score -0.31.
Against FGFR3 [SID160765405], the values are G2 robust z-score -0.95.
FGFR3 [SID160765415] scored G2 robust z-score -0.36.
Against GNGT2 [SID160772316], the entry reads G2 robust z-score 3.5.
GNGT2 [SID160772324] showed G2 robust z-score 1.19.
GNGT2 [SID160772334] gave G2 robust z-score -0.329.
Knock-down of STAT2 [SID160717433] came out at: G2 robust z-score -0.0118.
Silencing of STAT2 [SID160717434] gave: G2 robust z-score -0.717.
Against STAT2 [SID160717436], the entry reads G2 robust z-score 0.313.
Silencing of OXCT1 [SID160731317] came out at: G2 robust z-score 0.116.
Against OXCT1 [SID160778478] the deposit lists G2 robust z-score -0.98.
OXCT1 [SID160778479] showed G2 robust z-score -0.738.

Copied from the entries so far (2 entries):
STAT2 [SID160717434] — G2 robust z-score = -0.717
STAT2 [SID160717436] — G2 robust z-score = 0.313
